Results are given in words; binding and its absence hold for the method and conditions named. Some results given as binding are weak or reduced against the parent protein; the word gives no strength.
Target: human SIRT1 protein (human) (UniProt Q96EB6)
Assay: SPR; Biacore T200; human SIRT1 amine-coupled to a CM5 chip (10 mM sodium acetate pH 4.0 plus 20 uM NAD+); peptides injected at 20, 100 and 200 uM (repeat with 10 to 200 uM), contact 300 s, 20 ul/min, dissociation 1200 s; regeneration 2.0 M glycine pH 2.0 then 2.0 M NaCl; both purified

Protein sequences, listed by entry. Tags and fused reporters are not part of them.
UniProt Q96EB6: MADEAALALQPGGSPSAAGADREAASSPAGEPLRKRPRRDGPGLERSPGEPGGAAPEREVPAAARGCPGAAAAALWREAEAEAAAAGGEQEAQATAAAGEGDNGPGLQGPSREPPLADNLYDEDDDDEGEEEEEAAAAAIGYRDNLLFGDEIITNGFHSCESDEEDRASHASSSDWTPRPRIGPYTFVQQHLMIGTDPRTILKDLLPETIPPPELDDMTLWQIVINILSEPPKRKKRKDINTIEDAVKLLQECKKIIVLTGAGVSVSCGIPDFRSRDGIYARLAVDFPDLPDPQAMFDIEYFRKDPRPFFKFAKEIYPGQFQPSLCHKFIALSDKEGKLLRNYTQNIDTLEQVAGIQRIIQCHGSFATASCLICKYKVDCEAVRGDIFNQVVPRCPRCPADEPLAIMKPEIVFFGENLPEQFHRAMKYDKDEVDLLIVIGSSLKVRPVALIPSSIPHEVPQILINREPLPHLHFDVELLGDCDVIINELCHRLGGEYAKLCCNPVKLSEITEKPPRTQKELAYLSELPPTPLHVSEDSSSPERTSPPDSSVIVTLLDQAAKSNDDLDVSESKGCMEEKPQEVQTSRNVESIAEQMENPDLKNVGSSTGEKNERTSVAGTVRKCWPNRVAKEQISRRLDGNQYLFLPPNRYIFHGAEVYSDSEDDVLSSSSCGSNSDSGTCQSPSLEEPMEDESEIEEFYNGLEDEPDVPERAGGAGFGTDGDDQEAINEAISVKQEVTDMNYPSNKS

Row | Binder | binding
1 | IQQVFESGGSKKCIQVGGEF (acetyl-lysine at the underlined K (K222)) [AIRE wild-type SAND domain peptide (positions 211 to 230 of the human AIRE protein)] | binds
2 | IQQVFESGGSKKCIQVGWEF (acetyl-lysine at the underlined K (K222)) [AIRE G228W mutant SAND domain peptide (positions 211 to 230 of the human AIRE protein)] | binds weakly

— paper PMC9485725, “The AIRE G228W mutation disturbs the interaction of AIRE with its partner molecule SIRT1” (Frontiers in Immunology, 2022)
